Laboratory results from publication PMC4919782.

What was measured:
[1] = biological target: T1, C/EBPβ (pig (Yorkshire piglet)) (UniProt E5Q8C6); assay: EMSA; conditions: no shift bands, Binding buffer 20 mM Tris-Cl pH 7.6, 50 mM KCl, 0.5 mM EDTA, 10% glycerol, 1 mM DTT (2 µl in 10 µl reaction), antibody preincubation 1 h at 4 °C, protein in an extract, label: biotin-dUTP
T1 sequence (looked up, limits assumed): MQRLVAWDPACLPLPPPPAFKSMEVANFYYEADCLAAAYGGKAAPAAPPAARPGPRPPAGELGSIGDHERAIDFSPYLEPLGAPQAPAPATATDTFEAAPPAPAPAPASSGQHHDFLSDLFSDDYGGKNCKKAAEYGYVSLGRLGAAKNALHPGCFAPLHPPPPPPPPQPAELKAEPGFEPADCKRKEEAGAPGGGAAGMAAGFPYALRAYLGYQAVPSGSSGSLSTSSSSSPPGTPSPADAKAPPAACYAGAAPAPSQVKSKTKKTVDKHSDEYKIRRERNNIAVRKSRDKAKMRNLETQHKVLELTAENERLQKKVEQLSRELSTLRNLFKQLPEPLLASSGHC

[2] = biological target: T1, C/EBPβ (pig (Yorkshire piglet)); assay: EMSA supershift; conditions: C/EBPβ antibody, lane 5; Binding buffer 20 mM Tris-Cl pH 7.6, 50 mM KCl, 0.5 mM EDTA, 10% glycerol, 1 mM DTT (2 µl in 10 µl reaction); antibody preincubation 1 h at 4 °C; protein in an extract; label: biotin-dUTP

“AACCCACAACCTCATGGTTC (double strand) [BPI wt probe, methylated]”: no binding ([1]; lanes 1-3, treated with CpG methyltransferase M.SssI, methylated positions not stated (printed probe contains no CpG; paper attributes effect to non-CpG mC-15)).

“AACCCACAACCTCATGGTTC (double strand) [BPI wt probe, unmethylated]”: binds [2].

“AACCGACTAGTCTATGGTTC (double strand) [BPI mut probe]”: no binding ([1]; lanes 7-10, M.SssI treatment state per lane not stated).

For at least one entry, the source does not settle the construct or the ends of the probe. Where cells or extracts were used, other partners may take part. For part of these data: A negative result means that nothing was seen under these conditions. Where a protein sequence is shown, tags need not be part of it.
